# Measurements taken from the supplement of paper PMC8728848.
# The list shows a part of the results.
# B1: HopZSSI-T (Helicobacter pylori), B5Z6D0 (protein)
# chain: MGSSHHHHHHSSGLVPRGSHMENLYFQGEDNGFFISAGYQIGEAAQMVKNTGELKKLSDTYENLSNLLTNFNNLNQAVTNASSPSEINAAIDNLKANTQGLTGEKTNSPAYQAVYLALNAAVGLWNVIAYNVQCGPGNSSQQSVTFEGQPGHNSSSINCNLTGYNNGVSGPLSIDNFKQLNQAYQVLQQALKQGVPVLNNTNQKIEVKVTTQTNGQSSKETTTTTTTNDAQTLLQEASKMIDVLTTNCPWVNHNPGQNGGAPWGLIRQECVSGFATEFSAVTSMIKNAQEIVTQAQSLNANQNNQNAPQDFNPYTSADRAFAQNMLNHAQAQAKILELADQMKKDLNTIPSQFITNYLAACRIDGTTPSQGVTNNTWGAGCAYVEETITALNNSLAHFGTQAEQIKQSELLARTILDFRGSLSTLNSTYNSITTTASNTPNSPFLKNLISQSTNPNNPGGLQAVYQVNQSAYSQLLSATQELGHNPFRRIGLISSQT
# What was measured:
# Experiment in all cases: glycan array binding signal (z-score within array); higher = stronger binding
# Conditions in all cases: glycan notation: IUPAC condensed, linker removed
# [1] = molecular target: Gal(a1-3)Gal(b1-4)GlcNAc(b1-2)Man
# Method in brief: (§1)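 Glycan array binding is given as a within-array Z-score, which can be read as non-binding when negative. The arrays, 3228 of them, came from the Consortium for Functional Glycomics database and were retained only where the protein sequence was available. Z-scores were averaged across arrays of the same protein sequence at different concentrations or buffers and across linkers.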
# [2] = molecular target: Gal(a1-3)Gal(b1-4)GlcNAc(b1-2)Man(a1-3)[Gal(a1-3)Gal(b1-4)GlcNAc(b1-2)Man(a1-6)]Man(b1-4)GlcNAc(b1-4)GlcNAc
# Method in brief: as §1
# [3] = molecular target: Gal(a1-3)Gal(b1-4)GlcNAc(b1-3)GalNAc
# Method in brief: as §1
# [4] = molecular target: Gal(a1-3)Gal(b1-4)GlcNAc(b1-6)GalNAc
# Method in brief: as §1
# [5] = molecular target: Gal(a1-3)Gal(b1-4)[Fuc(a1-3)]GlcNAc
# Method in brief: as §1
# [6] = molecular target: Gal(a1-3)Gal(b1-4)[Fuc(a1-3)]GlcNAc(b1-2)Man(a1-3)[Gal(a1-3)Gal(b1-4)[Fuc(a1-3)]GlcNAc(b1-2)Man(a1-6)]Man(b1-4)GlcNAc(b1-4)GlcNAc
# Method in brief: as §1
# Gal(a1-3)GalNAc = molecular target: Gal(a1-3)GalNAc
# Method in brief: as §1
# [7] = molecular target: Gal(a1-3)[Gal(a1-4)]Gal(b1-4)GlcNAc
# Method in brief: as §1
# [8] = molecular target: Gal(a1-4)Gal(b1-3)GlcNAc(b1-2)Man(a1-3)[Gal(a1-4)Gal(b1-3)GlcNAc(b1-2)Man(a1-6)]Man(b1-4)GlcNAc(b1-4)GlcNAc
# Method in brief: as §1
# Gal(a1-4)Gal(b1-4)Glc = molecular target: Gal(a1-4)Gal(b1-4)Glc
# Method in brief: as §1
# Gal(a1-4)Gal(b1-4)GlcNAc = molecular target: Gal(a1-4)Gal(b1-4)GlcNAc
# Method in brief: as §1
# [9] = molecular target: Gal(a1-4)Gal(b1-4)GlcNAc(b1-2)Man(a1-3)[Gal(a1-4)Gal(b1-4)GlcNAc(b1-2)Man(a1-6)]Man(b1-4)GlcNAc(b1-4)GlcNAc
# Method in brief: as §1
# [10] = molecular target: Gal(a1-4)Gal(b1-4)GlcNAc(b1-3)Gal(b1-4)Glc
# Method in brief: as §1
# Gal(a1-4)GlcNAc = molecular target: Gal(a1-4)GlcNAc
# Method in brief: as §1
# Gal(a1-6)Glc = molecular target: Gal(a1-6)Glc
# Method in brief: as §1
# Gal(b1-2)Gal = molecular target: Gal(b1-2)Gal
# Method in brief: as §1
# Gal(b1-3)Gal = molecular target: Gal(b1-3)Gal
# Method in brief: as §1
# Gal(b1-3)Gal(b1-4)GlcNAc = molecular target: Gal(b1-3)Gal(b1-4)GlcNAc
# Method in brief: as §1
# Gal(b1-3)GalNAc = molecular target: Gal(b1-3)GalNAc
# Method in brief: as §1
# [11] = molecular target: Gal(b1-3)GalNAc(a1-3)[Fuc(a1-2)]Gal(b1-4)Glc
# Method in brief: as §1
# [12] = molecular target: Gal(b1-3)GalNAc(a1-3)[Fuc(a1-2)]Gal(b1-4)GlcNAc
# Method in brief: as §1
# Gal(b1-3)GalNAc(b1-3)Gal = molecular target: Gal(b1-3)GalNAc(b1-3)Gal
# Method in brief: as §1
# [13] = molecular target: Gal(b1-3)GalNAc(b1-3)Gal(a1-4)Gal(b1-4)Glc
# Method in brief: as §1
# [14] = molecular target: Gal(b1-3)GalNAc(b1-4)Gal(b1-4)Glc
# Method in brief: as §1
# [15] = molecular target: Gal(b1-3)GalNAc(b1-4)[Neu5Ac(a2-3)]Gal(b1-4)Glc
# Method in brief: as §1
# Gal(b1-3)GlcNAc = molecular target: Gal(b1-3)GlcNAc
# Method in brief: as §1
# [16] = molecular target: Gal(b1-3)GlcNAc(a1-3)Gal(b1-4)GlcNAc
# Method in brief: as §1
# [17] = molecular target: Gal(b1-3)GlcNAc(a1-6)Gal(b1-4)GlcNAc
# Method in brief: as §1
# Gal(b1-3)GlcNAc(b1-2)Man = molecular target: Gal(b1-3)GlcNAc(b1-2)Man
# Method in brief: as §1
# [18] = molecular target: Gal(b1-3)GlcNAc(b1-2)Man(a1-3)[Gal(b1-3)GlcNAc(b1-2)Man(a1-6)]Man(b1-4)GlcNAc(b1-4)GlcNAc
# Method in brief: as §1
# [19] = molecular target: Gal(b1-3)GlcNAc(b1-2)Man(a1-3)[Gal(b1-3)GlcNAc(b1-2)Man(a1-6)]Man(b1-4)GlcNAc(b1-4)[Fuc(a1-6)]GlcNAc
# Method in brief: as §1
# [20] = molecular target: Gal(b1-3)GlcNAc(b1-2)Man(a1-3)[GlcNAc(b1-4)][Gal(b1-3)GlcNAc(b1-2)Man(a1-6)]Man(b1-4)GlcNAc(b1-4)GlcNAc
# Method in brief: as §1
# [21] = molecular target: Gal(b1-3)GlcNAc(b1-2)[Gal(b1-3)GlcNAc(b1-6)]Man(a1-6)[Gal(b1-3)GlcNAc(b1-2)Man(a1-3)]Man(b1-4)GlcNAc(b1-4)GlcNAc
# Method in brief: as §1
# [22] = molecular target: Gal(b1-3)GlcNAc(b1-3)Gal(b1-3)GlcNAc
# Method in brief: as §1
# [23] = molecular target: Gal(b1-3)GlcNAc(b1-3)Gal(b1-4)Glc
# Method in brief: as §1
# [24] = molecular target: Gal(b1-3)GlcNAc(b1-3)Gal(b1-4)GlcNAc
# Method in brief: as §1
# [25] = molecular target: Gal(b1-3)GlcNAc(b1-3)Gal(b1-4)GlcNAc(b1-2)Man(a1-3)[Gal(b1-3)GlcNAc(b1-3)Gal(b1-4)GlcNAc(b1-2)Man(a1-6)]Man(b1-4)GlcNAc(b1-4)GlcNAc
# Method in brief: as §1
binder,measurement,setting,value
B1,glycan array binding signal (z-score),[1],-0.247
same,glycan array binding signal (z-score),[2],0.503
same,glycan array binding signal (z-score),[3],-0.615
same,glycan array binding signal (z-score),[4],-0.368
same,glycan array binding signal (z-score),[5],-0.695
same,glycan array binding signal (z-score),[6],-0.295
same,glycan array binding signal (z-score),Gal(a1-3)GalNAc,-0.363
same,glycan array binding signal (z-score),[7],-0.305
same,glycan array binding signal (z-score),[8],0.078
same,glycan array binding signal (z-score),Gal(a1-4)Gal(b1-4)Glc,0.988
same,glycan array binding signal (z-score),Gal(a1-4)Gal(b1-4)GlcNAc,0.912
same,glycan array binding signal (z-score),[9],0.08
same,glycan array binding signal (z-score),[10],0.496
same,glycan array binding signal (z-score),Gal(a1-4)GlcNAc,0.464
same,glycan array binding signal (z-score),Gal(a1-6)Glc,1.05
same,glycan array binding signal (z-score),Gal(b1-2)Gal,-0.182
same,glycan array binding signal (z-score),Gal(b1-3)Gal,-0.502
same,glycan array binding signal (z-score),Gal(b1-3)Gal(b1-4)GlcNAc,-0.409
same,glycan array binding signal (z-score),Gal(b1-3)GalNAc,-0.208
same,glycan array binding signal (z-score),[11],0.567
same,glycan array binding signal (z-score),[12],-0.081
same,glycan array binding signal (z-score),Gal(b1-3)GalNAc(b1-3)Gal,0.608
same,glycan array binding signal (z-score),[13],-0.481
same,glycan array binding signal (z-score),[14],-0.498
same,glycan array binding signal (z-score),[15],0.199
same,glycan array binding signal (z-score),Gal(b1-3)GlcNAc,-0.649
same,glycan array binding signal (z-score),[16],-0.041
same,glycan array binding signal (z-score),[17],-0.467
same,glycan array binding signal (z-score),Gal(b1-3)GlcNAc(b1-2)Man,-0.724
same,glycan array binding signal (z-score),[18],0.829
same,glycan array binding signal (z-score),[19],0.625
same,glycan array binding signal (z-score),[20],0.204
same,glycan array binding signal (z-score),[21],0.014
same,glycan array binding signal (z-score),[22],-0.42
same,glycan array binding signal (z-score),[23],-0.931
same,glycan array binding signal (z-score),[24],-0.249
same,glycan array binding signal (z-score),[25],-0.169

# Not a retest: an excerpt of the list.
binder,measurement,setting,value
B1,glycan array binding signal (z-score),[6],-0.295
same,glycan array binding signal (z-score),Gal(a1-3)GalNAc,-0.363
same,glycan array binding signal (z-score),[7],-0.305
same,glycan array binding signal (z-score),[8],0.078
same,glycan array binding signal (z-score),Gal(a1-4)Gal(b1-4)Glc,0.988
same,glycan array binding signal (z-score),Gal(a1-4)Gal(b1-4)GlcNAc,0.912
same,glycan array binding signal (z-score),[9],0.08
same,glycan array binding signal (z-score),[10],0.496
same,glycan array binding signal (z-score),Gal(a1-4)GlcNAc,0.464
